We go through one substance from publication PMC10132971.

The assay addresses T1, Nse5-TAP (S. cerevisiae) (UniProt Q03718).
T1 sequence: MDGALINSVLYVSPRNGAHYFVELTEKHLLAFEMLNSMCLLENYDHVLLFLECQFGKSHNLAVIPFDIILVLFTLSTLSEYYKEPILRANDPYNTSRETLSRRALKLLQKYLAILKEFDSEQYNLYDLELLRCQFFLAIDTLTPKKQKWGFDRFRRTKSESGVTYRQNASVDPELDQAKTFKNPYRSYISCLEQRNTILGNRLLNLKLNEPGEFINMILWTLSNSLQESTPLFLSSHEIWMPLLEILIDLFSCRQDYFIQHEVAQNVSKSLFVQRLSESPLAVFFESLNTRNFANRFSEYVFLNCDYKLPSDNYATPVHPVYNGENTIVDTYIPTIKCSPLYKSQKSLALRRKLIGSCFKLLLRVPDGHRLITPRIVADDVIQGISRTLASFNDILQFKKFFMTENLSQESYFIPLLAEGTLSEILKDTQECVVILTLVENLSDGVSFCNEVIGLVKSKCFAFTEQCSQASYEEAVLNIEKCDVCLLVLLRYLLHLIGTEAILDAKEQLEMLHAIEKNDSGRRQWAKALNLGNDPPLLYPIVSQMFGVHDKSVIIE
The assay is described as follows: tandem affinity purification; Nse5/6 subcomplex overexpressed in S. cerevisiae and purified (IgG Sepharose, TEV protease, calmodulin Sepharose); CBB-stained SDS-PAGE.

Results are given in words; binding and its absence hold for the method and conditions named. A result given as binding can be weak or reduced; the word gives no strength.

For the substance Nse6 (S. cerevisiae), the binding result is “binds”.
